# Measurements: the supplement of paper PMC3741180, “A Novel High Throughput Biochemical Assay to Evaluate the HuR Protein-RNA Complex Formation” (PLoS ONE, 2013)
# Protein sequences, listed by entry. Tags and fused reporters are not part of them.
# UniProt Q15717, whole entry: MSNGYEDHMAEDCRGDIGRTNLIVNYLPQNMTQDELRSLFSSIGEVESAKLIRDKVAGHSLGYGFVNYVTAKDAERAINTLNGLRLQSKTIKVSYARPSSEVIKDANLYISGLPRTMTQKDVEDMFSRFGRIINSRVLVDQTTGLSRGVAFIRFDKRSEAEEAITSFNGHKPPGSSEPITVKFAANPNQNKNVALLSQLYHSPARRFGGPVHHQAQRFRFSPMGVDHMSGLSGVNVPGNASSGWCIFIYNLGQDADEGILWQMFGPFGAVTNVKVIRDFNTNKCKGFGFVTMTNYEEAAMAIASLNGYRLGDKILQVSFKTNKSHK
# The list shows a part of the results. Most values lie within the scatter of the assay; repeated measurements hardly agree.
# Target: HuR (ELAVL1) - TNFalpha ARE RNA complex (UniProt Q15717)
# Test: AlphaScreen HuR-RNA complex signal Z-score relative to positive (Bi-TNF, DMSO) controls (Z-score (SD units of positive control)); higher = more complex signal
# Details: screen stage: primary screen; compound concentration: 25 nM
row,Structure (SMILES),AlphaScreen HuR-RNA complex signal Z-score
1,CC(CN1c2ccccc2Sc2ccccc21)N(C)C (configuration not stated),11.3
2,C=C1[C@H]2CC[C@@]3(C)[C@H](c4ccoc4)OC(=O)C[C@]13O[C@H]1C[C@H](O)C(C)(C)[C@H](CC(=O)OC)[C@]12C [3-DEOXY-3beta-HYDROXYANGOLENSIC ACID METHYL ESTER],0.982
3,NS(=O)(=O)c1cc2c(cc1C(F)(F)F)NC(Cc1ccccc1)NS2(=O)=O (configuration not stated),1.3
4,CN(C)CCCC1(c2ccc(F)cc2)OCc2cc(C#N)ccc21 (configuration not stated),1.25
5,CCCC(CCC)C(=O)O,-0.851
6,Cc1onc(-c2ccccc2)c1C(=O)N[C@@H]1C(=O)N2[C@@H]1SC(C)(C)[C@@H]2C(=O)O,-3.01
7,COc1c2c(cc3occ(-c4ccc5c(c4)OCO5)c(=O)c13)OC(C)(C)C=C2,3.67
8,CC1(C)O[C@H]2[C@H](O)C[C@](O)(C(N)=O)C[C@H]2O1,1.81
9,COC1=CC(=O)C[C@@H](C)[C@]12Oc1c(Cl)c(OC)cc(OC)c1C2=O,0.299
10,CCC(=O)NCC[C@@H]1CCc2ccc3c(c21)CCO3,0.853
11,CC[C@H](/C=C/[C@@H](C)[C@H]1CC[C@H]2[C@@H]3CCC4=CC(=O)CC[C@]4(C)[C@H]3CC[C@]12C)C(C)C,0.442
12,COc1ccc(-c2coc3cc(O)cc(O)c3c2=O)cc1,0.836
13,COc1cc2c(cc1OC)C(=O)OC2,1.18
14,OCC(O)CN1CCN(c2ccccc2)CC1 (configuration not stated),0.937
15,O=C(O)c1ccccc1Nc1cccc(OCc2ccc3ccccc3n2)c1,3.29
16,COc1ccc2cc1Oc1ccc(cc1)C[C@H]1c3c(cc4c(c3Oc3cc5c(cc3OC)CCN(C)[C@@H]5C2)OCO4)CCN1C,0.548
17,COc1ccc(-c2cc(=O)c3c(O)cc(OC)c(OC)c3o2)c(OC)c1,2.08
18,COc1ccc(CC(=O)c2ccc(O)cc2O)cc1,0.762
19,CCOC(=O)c1ccc(O)cc1,0.412
20,Cc1c(OCC(F)(F)F)ccnc1C[S+]([O-])c1nc2ccccc2[nH]1 (configuration not stated),0.678
21,O=C(/C=C/c1ccccc1)c1ccc(O)cc1O,0.628
22,Cn1c(=O)c2c(ncn2C)n(C)c1=O,0.399
23,CC1(C)CC[C@]2(C)CC[C@]3(C)C(=CC[C@@H]4[C@@]5(C)CC[C@H](O)C(C)(C)[C@@H]5CC[C@]43C)[C@@H]2C1 [beta-AMYRIN],1.86
24,COC(=O)Nc1nc2cc(C(=O)c3ccccc3)ccc2[nH]1,0.261
25,CC1(C)S[C@@H]2[C@H](NC(=O)[C@H](NC(=O)N3CCNC3=O)c3ccccc3)C(=O)N2[C@H]1C(=O)O,1.29

row,Structure (SMILES),AlphaScreen HuR-RNA complex signal Z-score
1,COc1c(-c2coc3cc4c(cc3c2=O)CC(OC(C)=O)C(C)(C)O4)ccc2c1C=CC(C)(C)O2 (configuration not stated),0.644
2,NC(=O)c1cc[n+](CC2=C(C(=O)O)N3C(=O)[C@@H](NC(=O)[C@@H](c4ccccc4)S(=O)(=O)[O-])[C@H]3SC2)cc1,1.68
3,CC(=O)Oc1ccc2c(c1)CC[C@@H]1[C@@H]2CC[C@]2(C)[C@@H](O)CC[C@@H]12,1.2
4,COc1ccc(C(Cl)=C(c2ccc(OC)cc2)c2ccc(OC)cc2)cc1,-3.06
5,O=C(O)c1cccc(O)c1O,1.88
6,CC(CCc1ccccc1)NCC(O)c1ccc(O)c(C(N)=O)c1 (configuration not stated),1.31
7,CCOC(=O)[C@H](CCc1ccccc1)N[C@@H](C)C(=O)N1Cc2ccccc2C[C@H]1C(=O)O,0.148
8,Cc1cc(O)c(C=O)c2c1C(=O)Oc1c(C)c(O)c3c(c1O2)C(O)OC3=O (configuration not stated),0.517
9,Cc1onc(-c2c(Cl)cccc2Cl)c1C(=O)N[C@@H]1C(=O)N2[C@@H]1SC(C)(C)[C@@H]2C(=O)O,-6.19
10,COc1cc(OC)c(C(C)=O)c(O)c1C,1.78
11,CN(C)/N=N/c1[nH]cnc1C(N)=O,1.05
12,C[N+](C)(C)CCCCCC[N+](C)(C)C,2.55
13,COc1c2ccoc2c(OC)c2oc(=O)ccc12,0.794
14,COc1ccc([C@@H]2CC(=O)c3c(O)cc(O[C@@H]4O[C@H](CO[C@@H]5O[C@@H](C)[C@H](O)[C@@H](O)[C@H]5O)[C@@H](O)[C@H](O)[C@H]4O)cc3O2)cc1O,2.4
15,CC(C)(C(=O)O)c1ccc(C(O)CCCN2CCC(C(O)(c3ccccc3)c3ccccc3)CC2)cc1 (configuration not stated),1.69
16,CN(C)CCCN1c2ccccc2Sc2ccccc21,4.21
17,Cc1cc(C(C)(C)C)c(O)c(C)c1CC1=NCCN1,6.38
18,O=C[C@H](O)[C@@H](O)[C@H](O)CO,2.41
19,C=CC(C1=CC(=O)C=CC1=O)c1ccccc1 (configuration not stated),2.56
20,COC(=O)[C@H](OC(C)=O)[C@H]1C(C)(C)[C@H](OC(C)=O)[C@@H]2CC3=C4CC(=O)O[C@@H](c5ccoc5)[C@]4(C)CC[C@@H]3[C@@]1(C)C2=O,-2.17
21,COC(=O)[C@H]1[C@H]2C[C@H]3c4[nH]c5ccccc5c4CCN3C[C@@H]2CC[C@@H]1O,2.06
22,CC(=O)Nc1ccccc1,1.32
23,COc1ccc2c(=O)c(-c3cc4c(cc3OC)OCO4)coc2c1,1.5
24,COc1ccc2c(c1)OC/C(=C\c1ccc(OC)c(O)c1)C2=O,1.07
25,C[N+]1(C)[C@@H]2CC[C@H]1C[C@@H](OC(=O)C(O)c1ccccc1)C2 (some centres not stated),-0.838

# Looked up by compound from the list above:
row,Structure (SMILES),AlphaScreen HuR-RNA complex signal Z-score
3,CC(=O)Oc1ccc2c(c1)CC[C@@H]1[C@@H]2CC[C@]2(C)[C@@H](O)CC[C@@H]12,1.2
2,C=C1[C@H]2CC[C@@]3(C)[C@H](c4ccoc4)OC(=O)C[C@]13O[C@H]1C[C@H](O)C(C)(C)[C@H](CC(=O)OC)[C@]12C [3-DEOXY-3beta-HYDROXYANGOLENSIC ACID METHYL ESTER],0.982
4,CN(C)CCCC1(c2ccc(F)cc2)OCc2cc(C#N)ccc21 (configuration not stated),1.25
20,COC(=O)[C@H](OC(C)=O)[C@H]1C(C)(C)[C@H](OC(C)=O)[C@@H]2CC3=C4CC(=O)O[C@@H](c5ccoc5)[C@]4(C)CC[C@@H]3[C@@]1(C)C2=O,-2.17
18,O=C[C@H](O)[C@@H](O)[C@H](O)CO,2.41

# The list continues:

row,Structure (SMILES),AlphaScreen HuR-RNA complex signal Z-score
1,COc1ccc2c(c1)OC1(O)COc3cc(OC)c(OC)cc3C1=C2 (configuration not stated),2.17
2,Oc1ncnc2[nH]ncc12,0.719
3,CC1(C)C(=O)C=C[C@]2(C)[C@H]3CC[C@@]4(C)[C@H](c5ccoc5)OC(=O)[C@H]5O[C@]54[C@]3(C)C(=O)C[C@@H]12,1.44
4,CNCCCC1c2ccccc2C=Cc2ccccc21,1.34
5,C[C@]12CCC(=O)C=C1CC[C@@H]1[C@@H]2[C@@H](O)C[C@@]2(C)[C@H]1CC[C@]2(O)C(=O)CO,0.412
6,COc1ccc(CCN(C)CCCC(C#N)(c2ccc(OC)c(OC)c2)C(C)C)cc1OC (configuration not stated),0.802
7,CCCc1cc(=O)[nH]c(=S)[nH]1,11.3
8,CC1=C(CCC(=O)O)c2cc3[nH]c(cc4nc(cc5[nH]c(cc1n2)c(C)c5C(C)O)C(C)=C4C(C)O)c(C)c3CCC(=O)O (configuration not stated),2.32
9,c1ccc2c(Cc3c[nH]c4ccccc34)c[nH]c2c1,1.24
10,CO/N=C(\C(=O)N[C@@H]1C(=O)N2C(C(=O)OCOC(=O)C(C)(C)C)=C(/C=C\c3scnc3C)CS[C@H]12)c1csc(N)n1,-7.88
11,CN(N=O)C(=O)N[C@H]1C(O)O[C@H](CO)[C@@H](O)[C@@H]1O (mixture of isomers),-1.91
12,CCCCC(=O)O[C@H]1CC[C@H]2[C@@H]3CCc4cc(O)ccc4[C@H]3CC[C@]12C,-2.76
13,COc1ccc2oc(-c3ccccc3OC)cc(=O)c2c1,1.67
14,Fc1ccc(C(c2ccc(F)cc2)N2CCN(C/C=C/c3ccccc3)CC2)cc1,0.515
15,CN1CCc2c(c3ccccc3n2Cc2ccccc2)C1,2.11
16,N=C(N)NC(=N)Nc1ccccc1,1.55
17,CN[C@@H]1[C@H](O[C@H]2[C@H](O[C@H]3[C@H](O)[C@@H](O)[C@H](N=C(N)N)[C@@H](O)[C@@H]3N=C(N)N)O[C@@H](C)[C@]2(O)C=O)O[C@@H](CO)[C@H](O)[C@H]1O,-0.697
18,C[C@H](N)CO,0.263
19,OCCOCCN1CCN(C2=Nc3ccccc3Sc3ccccc32)CC1,-3.38
20,Cc1cc(O)c(C)c(O)c1C(=O)O,1.61
21,COc1cccc2c1C(=O)c1c(O)c3c(c(O)c1C2=O)C[C@@](O)(C(=O)CO)C[C@@H]3O[C@H]1C[C@H](N)[C@H](O)[C@H](C)O1,-2.34
22,CC1(C)S[C@@H]2[C@H](NC(=O)[C@H](N)c3ccc(O)cc3)C(=O)N2[C@H]1C(=O)O,0.412
23,O=C(O)CCCCCCCCCCCC[C@@H]1C=CCC1,1.95
24,COc1cc(OC)c2c(=O)c(O)c(-c3ccc(OC)c(OC)c3)oc2c1,1.45
25,CNCc1ccccc1,1.27

row,Structure (SMILES),AlphaScreen HuR-RNA complex signal Z-score
1,N[C@@H](Cc1cc(I)c(Oc2cc(I)c(O)c(I)c2)c(I)c1)C(=O)O,-0.112
2,Cc1cc(=O)oc2cc(O)c(O)cc12,0.221
3,COc1cc(O)c(C(C)=O)c(O)c1,2.16
4,Nc1ncnc2c1ncn2[C@@H]1O[C@H](CO)[C@@H](O)[C@H]1O,0.412
5,Clc1ccc(CSC(Cn2ccnc2)c2ccc(Cl)cc2Cl)cc1 (configuration not stated),1.42
6,C[n+]1cc2c3c(ccc2c2ccc4cc5c(cc4c21)OCO5)OCO3,0.719
7,COc1ccc2c(c1)OCC(Cc1ccc(O)c(OC)c1)C2=O (configuration not stated),2.8
8,C=C(C)CCCC(C)CCOC(C)=O (configuration not stated),1.63
9,CN(C)CCN(Cc1ccccc1)c1ccccn1,-1.87
10,C=CC1=C(C)c2cc3[nH]c(cc4nc(cc5[nH]c(cc1n2)c(C)c5CCC(=O)O)C(CCC(=O)O)=C4C)c(C)c3C=C,1.37
11,COc1ccc(-c2coc3c(O)c(OC)ccc3c2=O)cc1,2.49
12,C[C@]12CC[C@@H]3c4ccc(O)cc4CC[C@H]3[C@@H]1CC[C@@H]2O,-1.29
13,CCCN(CCC)S(=O)(=O)c1ccc(C(=O)O)cc1,16.7
14,CCN(CC)C(=O)c1cccc(C)c1,4.43
15,CC(=O)[C@H]1CC[C@H]2[C@@H]3CCC4=CC(=O)CC[C@]4(C)[C@H]3CC[C@]12C,19.4
16,CN(C)CC/C=C1/c2ccccc2Sc2ccc(Cl)cc21,1.31
17,CC(=O)O[C@H]1C[C@@H](OC(C)=O)C(C)(C)[C@@H]2C[C@@H](OC(C)=O)[C@]3(C)[C@H](CC[C@@]4(C)[C@H](c5ccoc5)OC(=O)[C@H]5O[C@@]534)[C@@]12C,1.3
18,CN(C)CCOC(c1ccccc1)c1ccccc1,-5.17
19,C=CCCCCCCCCCCCc1ccco1,2.57
20,CC1=C(/C=C/C(C)=C/C=C/C(C)=C/C(=O)O)C(C)(C)CCC1,1.62
21,CC(=O)O[C@@H]1CC2C(C)(C)[C@H](O)C=C[C@]2(C)C2CC[C@@]3(C)[C@H](c4ccoc4)OC(=O)C4OC43[C@@]21C (some centres not stated),1.8
22,CC(=O)Oc1ccccc1C(=O)O,0.719
